Measurements from PubChem BioAssay AID328 (DTP/NCI, 2004).
The list does not hold the whole screen: it gathers tests that were run many times, whatever their T/C, doses with no T/C, and many T/C values between a quarter and a half above the control. Other doses and runs of a compound stand elsewhere. T/C: endpoint of the treated group in % of that of the vehicle group. Some doses have a count of surviving animals in place of a T/C: the source holds a T/C of zero for them, seemingly a mark for toxic or unscored doses. Some doses without a T/C left all or most animals alive at the check, yet need not have been tolerated: survival well below the control is almost never listed, so the zero probably covers shortened survival too. Counts of survivors are from the toxicity check (mostly the fifth day) where no day follows; animals may have died later. Schedules are NCI's codes, read here as Q, the interval in days (D) or hours (H), X, the number of doses. Some doses were run more than once; their values stand side by side, smallest first. Counts like (3×) stand for listed records that agree. For survival time, this PubChem deposit counts one and a half times the control or more as active, and values a quarter to a half above the control carry no call in these data; other NCI protocols may use other cut-offs. Some T/C values are followed by the survivors on the day toxicity was checked, most often the fifth; where none is given, no animal had died by that day.

System: BDF1 mice, P388 leukemia ip, median survival T/C
Assay: NCI In Vivo Anticancer Drug Screen. Data for tumor model P388 Leukemia (intraperitoneal) in B6D2F1 (BDF1) mice
Conditions: T/C endpoint: median survival time, higher T/C = longer survival
In short: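 Compound-treated tumour-bearing mice were compared with vehicle-treated controls. Survival was recorded, and the value is the treated-group measurement divided by the control-group measurement (T/C).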

[1] = dose: 200.0 mg/kg/injection, schedule: Q01DX009 (ip), vehicle: Klucel (hydroxypropylcellulose) (HPC)

**Q.** `O=P1(N(CCCl)CCCl)NCCCO1` (stereo unspecified) was tested. Which T/C [1] did it give?
**A.** The T/C was 91 % of control.

**Q.** What about the survivor count [1] of the same compound?
**A.** The survivor count was 0 of 6, 1 of 3, 3 of 6, 2 of 3, 4 of 6, 5 of 6, 3 of 3, 6 of 6.

**Q.** And the survivor count (dose: 200.0 mg/kg/injection, schedule: Q01DX009 (ip), vehicle: saline)?
**A.** The survivor count was 7 of 7.

**Q.** And the T/C (dose: 200.0 mg/kg/injection, schedule: Q04DX002 (ip), vehicle: Klucel (hydroxypropylcellulose) (HPC), evaluated on day 30)?
**A.** The T/C was 87, 99, 116, 132 [5 of 6 alive], 135, 155, 166, 172, 174, 199, 205, 211, 217, 224, 235, 238, 247, 252 (2×), 253, 255, 258 (2×), 270 (2×), 272 (2×), 277, 285, 291 (2×), 293 % of control.

**Q.** And the T/C (dose: 200.0 mg/kg/injection, schedule: Q04DX002 (ip), vehicle: Klucel (hydroxypropylcellulose) (HPC), evaluated on day 35)?
**A.** The T/C was 224 % of control.

**Q.** And the survivor count (dose: 200.0 mg/kg/injection, schedule: Q04DX002 (ip), vehicle: Klucel (hydroxypropylcellulose) (HPC))?
**A.** Its survivor count is 2 of 3.

**Q.** And the T/C (dose: 200.0 mg/kg/injection, schedule: Q04DX003 (ip), vehicle: Klucel (hydroxypropylcellulose) (HPC), evaluated on day 30)?
**A.** The T/C was 86, 91, 92, 94, 100, 104, 107 (2×), 108, 109, 110, 111, 115, 118, 120, 122, 125, 127, 128, 129, 136, 138, 158, 160, 200, 217, 219, 228, 232, 236, 253, 270 % of control.

**Q.** What about the T/C (dose: 200.0 mg/kg/injection, schedule: Q04DX003 (ip), vehicle: Klucel (hydroxypropylcellulose) (HPC), evaluated on day 35) of the same compound?
**A.** The T/C was 209 and 276 % of control.

**Q.** And the survivor count (dose: 200.0 mg/kg/injection, schedule: Q04DX003 (ip), vehicle: Klucel (hydroxypropylcellulose) (HPC))?
**A.** Its survivor count is 3 of 3 and 6 of 6.

**Q.** And the survivor count (dose: 200.0 mg/kg/injection, schedule: Q04DX003 (ip), vehicle: water)?
**A.** Its survivor count is 6 of 6.

**Q.** What about the T/C (dose: 250.0 mg/kg/injection, schedule: Q01DX001 (ip), vehicle: saline, evaluated on day 5) of the same compound?
**A.** Its T/C is 286, 372, 559 % of control.

**Q.** What about the T/C (dose: 250.0 mg/kg/injection, schedule: Q01DX001 (ip), vehicle: saline, evaluated on day 35) of the same compound?
**A.** Its T/C is 349 % of control.

**Q.** What about the T/C (dose: 250.0 mg/kg/injection, schedule: Q01DX001 (ip), vehicle: saline, evaluated on day 60) of the same compound?
**A.** The T/C was 177 % of control.

**Q.** What about the T/C (dose: 300.0 mg/kg/injection, schedule: Q01DX001 (ip), vehicle: saline, evaluated on day 5) of the same compound?
**A.** Its T/C is 111, 113, 116, 150, 172, 243, 303, 345, 350, 481, 555, 587 % of control.

**Q.** What about the T/C (dose: 300.0 mg/kg/injection, schedule: Q01DX001 (ip), vehicle: saline, evaluated on day 34) of the same compound?
**A.** The T/C was 105 % of control.

**Q.** And the T/C (dose: 300.0 mg/kg/injection, schedule: Q01DX001 (ip), vehicle: saline, evaluated on day 46)?
**A.** Its T/C is 338 % of control.

**Q.** And the T/C (dose: 300.0 mg/kg/injection, schedule: Q01DX001 (ip), vehicle: saline, evaluated on day 60)?
**A.** The T/C was 102, 111, 113, 116, 150, 169, 243, 303, 350, 482, 486, 530 (2×), 545, 554, 555, 571, 587 % of control.

**Q.** And the T/C (dose: 400.0 mg/kg/injection, schedule: Q01DX001 (ip), vehicle: Klucel (hydroxypropylcellulose) (HPC), evaluated on day 30)?
**A.** Its T/C is 100, 104 [4 of 6 alive], 105 [5 of 6 alive], 107 [2 of 3 alive], 117 [5 of 6 alive], 118 [5 of 6 alive], 120, 135, 136, 151 [4 of 6 alive], 152, 176 [2 of 3 alive], 183 [5 of 6 alive], 214, 243 [4 of 6 alive], 245, 264, 270 [5 of 6 alive], 272, 275, 285 % of control [2 of 3 alive].

**Q.** What about the T/C (dose: 400.0 mg/kg/injection, schedule: Q01DX001 (ip), vehicle: Klucel (hydroxypropylcellulose) (HPC), evaluated on day 35) of the same compound?
**A.** The T/C was 95 and 156 % of control.

**Q.** And the survivor count (dose: 400.0 mg/kg/injection, schedule: Q01DX001 (ip), vehicle: Klucel (hydroxypropylcellulose) (HPC))?
**A.** The survivor count was 1 of 3, 2 of 6, 3 of 6, 2 of 3.

**Q.** And the T/C (dose: 400.0 mg/kg/injection, schedule: Q01DX001 (ip), vehicle: saline, evaluated on day 5)?
**A.** Its T/C is 675 % of control [4 of 5 alive].

**Q.** And the T/C (dose: 400.0 mg/kg/injection, schedule: Q01DX001 (ip), vehicle: saline, evaluated on day 9)?
**A.** The T/C was 297 % of control.

**Q.** And the T/C (dose: 400.0 mg/kg/injection, schedule: Q01DX001 (ip), vehicle: saline, evaluated on day 30)?
**A.** The T/C was 117 and 283 % of control.

**Q.** What about the T/C (dose: 400.0 mg/kg/injection, schedule: Q01DX001 (ip), vehicle: saline, evaluated on day 35) of the same compound?
**A.** The T/C was 343 % of control (2×).

**Q.** What about the T/C (dose: 400.0 mg/kg/injection, schedule: Q01DX001 (ip), vehicle: saline, evaluated on day 40) of the same compound?
**A.** The T/C was 396 % of control.

**Q.** What about the survivor count (dose: 400.0 mg/kg/injection, schedule: Q01DX001 (ip), vehicle: saline) of the same compound?
**A.** The survivor count was 3 of 10, 3 of 6, 4 of 6, 7 of 8.

**Q.** What about the T/C (dose: 400.0 mg/kg/injection, schedule: Q04DX002 (ip), vehicle: Klucel (hydroxypropylcellulose) (HPC), evaluated on day 30) of the same compound?
**A.** The T/C was 87, 90, 91, 94, 96, 99 [2 of 3 alive], 102, 105, 106, 258 (2×), 275, 290 % of control.

**Q.** And the T/C (dose: 400.0 mg/kg/injection, schedule: Q04DX002 (ip), vehicle: Klucel (hydroxypropylcellulose) (HPC), evaluated on day 35)?
**A.** The T/C was 86 % of control.

**Q.** And the survivor count (dose: 400.0 mg/kg/injection, schedule: Q04DX002 (ip), vehicle: Klucel (hydroxypropylcellulose) (HPC))?
**A.** Its survivor count is 0 of 6, 1 of 6, 1 of 3, 2 of 3, 4 of 6, 5 of 6, 3 of 3, 6 of 6.

**Q.** What about the T/C (dose: 400.0 mg/kg/injection, schedule: Q04DX003 (ip), vehicle: Klucel (hydroxypropylcellulose) (HPC), evaluated on day 30) of the same compound?
**A.** The T/C was 87, 88, 89, 90, 91, 93, 95, 112 % of control.

**Q.** What about the T/C (dose: 400.0 mg/kg/injection, schedule: Q04DX003 (ip), vehicle: Klucel (hydroxypropylcellulose) (HPC), evaluated on day 35) of the same compound?
**A.** Its T/C is 93 % of control.

**Q.** What about the survivor count (dose: 400.0 mg/kg/injection, schedule: Q04DX003 (ip), vehicle: Klucel (hydroxypropylcellulose) (HPC)) of the same compound?
**A.** Its survivor count is 1 of 3, 3 of 6, 2 of 3, 4 of 6, 5 of 6, 3 of 3, 6 of 6 (2×).

**Q.** What about the survivor count (dose: 400.0 mg/kg/injection, schedule: Q04DX003 (ip), vehicle: saline) of the same compound?
**A.** The survivor count was 2 of 6.

**Q.** And the survivor count (dose: 400.0 mg/kg/injection, schedule: Q04DX003 (ip), vehicle: water)?
**A.** The survivor count was 4 of 6.

**Q.** What about the survivor count (dose: 500.0 mg/kg/injection, schedule: Q01DX001 (ip), vehicle: saline) of the same compound?
**A.** Its survivor count is 3 of 6.

**Q.** What about the survivor count (dose: 600.0 mg/kg/injection, schedule: Q01DX001 (ip), vehicle: saline) of the same compound?
**A.** Its survivor count is 8 of 8.
